Experimental data reported in patent US4308181A (American Home Products Corporation, priority 1980, dated 1981).
Some peptides are written in HELM: one residue between dots, names in brackets for other building blocks, links after the first $.

Experiments:
[1] = general procedure: Boc solid-phase peptide synthesis; benzhydrylamine hydrochloride resin; diisopropylcarbodiimide, hydroxybenzotriazole; conditions: whole synthesis, scale 7 g resin, HOAc
[2] = general procedure: Boc solid-phase peptide synthesis; benzhydrylamine hydrochloride resin (Bachem); diisopropylcarbodiimide, hydroxybenzotriazole; conditions: whole synthesis, scale of the general procedure 7 g resin, acetate

Row | Substance | crude mass [1] [mg] | difficulty met [2]
1 | PEPTIDE1{[ac].G.S.H.L.[am]}$$$$V2.0 | 697 | After successive washed with DMF (1 time), MeCl2 (2 times), MeOH (1 time) and MeCl2 (3 times), the resin in ninhydrin trace positive and is deprotected with 50% TFA in MeCl2 (containing 0.5% DTE) for
2 | N-acetylseryl-L-histidyl-L-leucyl-L-valinamide, acetate | 733 | 
